No constants are given. Whether binding was seen depends on the method and setting. For some of these results: Binding calls can cover weak binding; strength is not graded here. For some of these results: Where a sequence is shown, tags or fusion partners need not be part of it.
Experiments:
[1] = target: T1, RON-Fc (human RON Sema, PSI and IPT1 domains, E25-M682, Fc fusion with human IgG1) (human) (UniProt Q04912); assay: BLI; RON-Fc (10 µg/ml) loaded on anti-human IgG Fc biosensors, Octet RED384; MSP, MSP β or scMSP 75-4.7 nM, 400 s association, 400 s dissociation, 30°C; global 1:1 fit, KD = koff/kon; both purified
T1 sequence: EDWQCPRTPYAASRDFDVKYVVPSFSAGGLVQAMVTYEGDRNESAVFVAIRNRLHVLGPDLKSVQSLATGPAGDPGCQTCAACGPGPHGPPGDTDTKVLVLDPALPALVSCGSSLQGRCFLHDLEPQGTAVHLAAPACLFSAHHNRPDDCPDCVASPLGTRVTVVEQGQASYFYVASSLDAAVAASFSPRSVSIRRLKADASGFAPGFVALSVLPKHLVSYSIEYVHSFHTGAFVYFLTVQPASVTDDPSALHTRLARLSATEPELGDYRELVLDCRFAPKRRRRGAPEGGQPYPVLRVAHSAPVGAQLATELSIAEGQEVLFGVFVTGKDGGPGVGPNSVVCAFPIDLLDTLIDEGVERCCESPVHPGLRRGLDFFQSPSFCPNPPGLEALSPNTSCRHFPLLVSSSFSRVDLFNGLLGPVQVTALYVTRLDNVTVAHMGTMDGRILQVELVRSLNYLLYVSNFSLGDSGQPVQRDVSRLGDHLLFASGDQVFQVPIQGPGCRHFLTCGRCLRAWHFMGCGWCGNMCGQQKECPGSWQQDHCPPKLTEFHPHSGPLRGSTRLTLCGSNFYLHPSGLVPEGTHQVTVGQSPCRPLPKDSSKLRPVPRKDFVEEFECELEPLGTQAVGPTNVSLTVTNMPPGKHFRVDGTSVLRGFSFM

By UniProt entry, the sequences of proteins in these tests, tags left out. Where a name states a change or a piece, a line headed by the entry shows the natural chain unless it says otherwise.
UniProt P26927: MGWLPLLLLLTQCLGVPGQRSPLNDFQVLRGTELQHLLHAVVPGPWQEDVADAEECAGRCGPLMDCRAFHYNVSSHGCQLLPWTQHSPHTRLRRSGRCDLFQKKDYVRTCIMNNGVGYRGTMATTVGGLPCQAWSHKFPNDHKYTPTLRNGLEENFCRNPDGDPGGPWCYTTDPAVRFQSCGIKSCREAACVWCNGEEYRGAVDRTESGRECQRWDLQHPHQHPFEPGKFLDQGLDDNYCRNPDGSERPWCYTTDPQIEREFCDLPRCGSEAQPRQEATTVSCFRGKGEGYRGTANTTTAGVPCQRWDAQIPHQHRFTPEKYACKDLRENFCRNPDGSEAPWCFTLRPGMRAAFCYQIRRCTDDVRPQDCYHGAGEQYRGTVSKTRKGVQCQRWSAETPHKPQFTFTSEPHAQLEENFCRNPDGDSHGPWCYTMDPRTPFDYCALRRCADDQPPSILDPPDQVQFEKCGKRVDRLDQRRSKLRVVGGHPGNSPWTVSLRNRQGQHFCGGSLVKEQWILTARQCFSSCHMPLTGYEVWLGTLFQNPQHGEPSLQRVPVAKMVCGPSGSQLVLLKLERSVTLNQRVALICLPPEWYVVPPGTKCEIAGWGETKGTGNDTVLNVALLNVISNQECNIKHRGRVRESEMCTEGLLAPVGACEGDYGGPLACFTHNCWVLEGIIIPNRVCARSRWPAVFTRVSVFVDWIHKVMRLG

[2] = target: T2, RON Sema/PSI (human RON residues E25-P568) (human) (UniProt Q04912); assay: SPR; RON Sema/PSI amine-coupled to a CM5 chip, Biacore 3000; MSP, MSP β or scMSP injected 500-3.9 nM in HBS-P (10 mM HEPES pH 7.5, 150 mM NaCl, 0.005% P20), 25°C, 30 µl/min; global 1:1 Langmuir fit, KD = koff/kon; both purified
T2 sequence: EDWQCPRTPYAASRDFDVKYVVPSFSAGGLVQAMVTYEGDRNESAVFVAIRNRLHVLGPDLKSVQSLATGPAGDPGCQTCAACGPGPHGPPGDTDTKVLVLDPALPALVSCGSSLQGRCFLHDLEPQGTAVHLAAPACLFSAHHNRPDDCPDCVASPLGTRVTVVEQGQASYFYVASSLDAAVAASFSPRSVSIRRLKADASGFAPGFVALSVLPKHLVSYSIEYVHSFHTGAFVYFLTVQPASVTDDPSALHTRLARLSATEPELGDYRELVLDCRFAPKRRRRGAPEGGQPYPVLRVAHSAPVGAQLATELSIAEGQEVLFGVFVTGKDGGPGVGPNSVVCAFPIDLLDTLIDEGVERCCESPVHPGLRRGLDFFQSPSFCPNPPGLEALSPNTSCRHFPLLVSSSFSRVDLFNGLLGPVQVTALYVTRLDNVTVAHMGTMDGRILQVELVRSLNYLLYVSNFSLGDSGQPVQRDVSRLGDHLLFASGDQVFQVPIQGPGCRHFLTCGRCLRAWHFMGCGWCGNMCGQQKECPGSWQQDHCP

[3] = target: T1, RON-Fc (human RON Sema, PSI and IPT1 domains, E25-M682, Fc fusion with human IgG1) (human); assay: ELISA; RON-Fc (1 µg/ml) captured on plate-coated rabbit anti-human IgG Fc; MSP 1000 nM-0.2 pM, 1 h, room temperature; 50 mM HEPES pH 7.2, 150 mM NaCl, 5 mM CaCl2, 1% BSA, 0.1% Tween-20; bound MSP detected with anti-His-HRP; 4-parameter fit; both purified
[4] = target: T1, RON-Fc (human RON Sema, PSI and IPT1 domains, E25-M682, Fc fusion with human IgG1) (human); assay: SPR; RON-Fc captured (50-100 RU) on immobilised anti-human Fc surfaces, CM5 chip, Biacore 3000; MSP, MSP β or scMSP injected 500-3.9 nM in HBS-P (10 mM HEPES pH 7.5, 150 mM NaCl, 0.005% P20), 25°C, 30 µl/min; global 1:1 Langmuir fit, KD = koff/kon; both purified

binding [1]: no binding (tested: 75 nM)
binding [2]: no binding (tested: 500 nM)
binding [3]: binds weakly
binding [4]: no binding (tested: 500 nM)
Substance: scMSP (noncleavable single-chain pro-MSP; Q19-G711; R483E, C672A) (from UniProt P26927) (ligand)

From paper PMC3884107
